# Where “and” joins values, the source holds several entries; their conditions need not be identical. Equal values may be shown once. About 18,000 (4.4%) of roughly 410,000 compounds were called active. The inconclusive results got no clear call from the source; some entries with a clear call stand among them for comparison. Rule as the data show it: active = activity change below about -60%; inconclusive = no clear call, values can overlap the other calls; inactive = above about -39%. More than one record can exist for a structure, and the calls need not agree.
# Experiment: qHTS Assay for inhibitors of the human cytomegalovirus (HCMV)
# Settings: HFF cells, HCMV-luciferase reporter, 72 h; at 57.5 µM; stronger effect = lower value
# Summary of the method: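 Two compound doses tested in HFFs infected with HCMV-luciferase, MOI 1 PFU/cell, 72 h at 37C. Lysate luminescence read with OneGlo; data normalized against buffer-only and 10uM Salinomycin inhibitor controls.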
# % is scaled to controls: 0 for no effect and ±100 for the full control effect.
row,SMILES,"activity change, negative = inhibition"
1,Cc1ccc(-c2nc(-c3cc4cccc(OCc5cccc(C)c5)c4oc3=O)no2)cc1,inconclusive: -47.3%
2,COc1ccc(-c2nc3ccc(Br)cn3c2Cc2cccc(Cl)c2)cc1OC,inconclusive: -41.1%
3,COc1ccc(C(=O)NCCCn2nc(C)cc2C)cc1S(=O)(=O)N1CCOCC1,inactive: -36%
4,CCc1nc2ccccc2c(=O)n1-c1ccc2ccccc2c1,inconclusive: -50.8%
5,O=C(CN(C(=O)c1ccc(Cl)cc1)C1CCCCC1)Nc1ccc(Cl)c([N+](=O)[O-])c1,inconclusive: -55.9%
6,Oc1c(C=NCc2ccncc2)sc2ccccc12,inactive: 52.2%
7,CCCCc1ccccc1NC(=S)NC1CCCC1,active: -66.1%
8,c1ccc2c(c1)-c1nc3ccccc3cc1C2N1CCCCC1 (configuration not stated),active: -102%
9,COc1ccc(-n2c(NCCN(C)C)nc3sc4c(c3c2=O)CCCCC4)cc1,active: -107%
10,C=CCOc1ccc2nc(NC(=O)OC)[nH]c2c1,inconclusive: -52.8%
11,Cn1c(-c2ccccc2)c(CCO)c2ccccc21,inactive: 8.66%
12,CC1Cc2cc(S(=O)(=O)NCc3ccccc3Cl)ccc2N1C(=O)C1CCC1 (configuration not stated),inconclusive: -52.2%
13,CCN(C(=O)c1cc2c(s1)-c1ccccc1OC2)c1cc(Cl)ccc1OC,inactive: -29.5%
14,CC(C)(C)NC(=O)N1CCn2cccc2C1c1ccccc1F (configuration not stated),inconclusive: -44.7%
15,CCc1ccc(-c2nc(CS(=O)CC(=O)NCCN3CCCCCC3)c(C)o2)cc1 (configuration not stated),inconclusive: -49.8%
16,CCN(CC)S(=O)(=O)c1ccc2c(c1)N(CC(=O)N1CCN(c3ccccc3F)CC1)C(=O)CO2,inactive: -16.7%
17,O=C(Nc1cccc2ccccc12)OCc1cncs1,inconclusive: -43.2%
18,O=C1C=CCC(/C=C/c2ccccc2)O1 (configuration not stated),inconclusive: -59.3%
19,O=C(NCCc1ccccn1)c1cc(-c2cccc3ccccc23)nc2ccccc12,inconclusive: -48.4%

# Fetched one by one from the entries so far, 4 records:
row,SMILES,"activity change, negative = inhibition"
16,CCN(CC)S(=O)(=O)c1ccc2c(c1)N(CC(=O)N1CCN(c3ccccc3F)CC1)C(=O)CO2,inactive: -16.7%
13,CCN(C(=O)c1cc2c(s1)-c1ccccc1OC2)c1cc(Cl)ccc1OC,inactive: -29.5%
19,O=C(NCCc1ccccn1)c1cc(-c2cccc3ccccc23)nc2ccccc12,inconclusive: -48.4%
18,O=C1C=CCC(/C=C/c2ccccc2)O1 (configuration not stated),inconclusive: -59.3%

# Additional compounds.

row,SMILES,"activity change, negative = inhibition"
1,Cc1ccc(C)c(NC(=O)COc2coc(CN3CCc4ccccc43)cc2=O)c1,inconclusive: -40.6%
2,COC(=O)c1c(C)oc2ccc(N(C(=O)Oc3ccccc3)S(=O)(=O)c3ccccc3)cc12,active: -63.7%
3,CC1(C(=O)NCc2ccccc2)CSCC(=O)N1Cc1cccc(F)c1 (configuration not stated),inactive: 43.4%
4,CCC(=O)OC(Cc1ccccc1)(c1ccccc1)[C@H](C)CN(C)C (some centres not stated),inconclusive: -46.4%
5,O=C(Nc1cccc(S(=O)(=O)N2CCCCC2)c1)c1ccc(S(=O)(=O)C(F)F)cc1,active: -63.7%
6,Cc1ccc(NC(=S)N(Cc2cccs2)Cc2cc3cccc(C)c3[nH]c2=O)cc1,inconclusive: -49.7%
7,COc1cccc(CNC(=O)C2CCCN2S(=O)(=O)c2ccc3c(c2)C(C)(C)C(=O)N3C)c1 (configuration not stated),inconclusive: -49.4%
8,COC(=O)c1c(C(=O)OC)c(-c2cccc(F)c2)n2c1CS(=O)(=O)C2,inconclusive: -55.8%
9,O=C1CC(/C=C/c2ccncc2)=Nc2ccccc2N1,active: -98.6%
10,Brc1ccc2ncnc(NCc3ccccc3)c2c1,active: -96.2%
11,CCS(=O)(=O)NCCc1cc2c(OC)ccc(OC)c2[nH]c1=O,inactive: -6.93%
12,CC(C)COC(=O)n1c(=O)oc2cc(S(=O)(=O)N3CCCCC3)ccc21,inconclusive: -45.8%
13,CCCn1c(CCC(=O)Nc2ccc(OCC)cc2)nc2cccnc21,inactive: -8.96%
14,Cc1ccccc1C(=O)N1CCC(C(=O)Nc2cccc(S(=O)(=O)N3CCCCC3)c2)CC1,inconclusive: -43.8%
15,Cc1cccc2c1N(C(=O)c1ccco1)C(C)(C)c1ssc(=S)c1-2,inconclusive: -44.4%
16,Brc1ccc(Br)c2cnccc12,inactive: -25.7%
17,CN1CCC(N(C)CC(O)c2ccccc2)CC1 (configuration not stated),inconclusive: -51.4%
18,Cc1nc(SCC(=O)c2c[nH]c3ccccc23)n[nH]1,active: -68.7%
19,Cc1cccc(C2=NC(C(F)(F)F)(C(F)(F)F)c3c(n(-c4ccc(F)cc4)c(=O)[nH]c3=O)N2)c1,inconclusive: -54.5%

row,SMILES,"activity change, negative = inhibition"
1,CCCCN(CC)CCNC(=O)c1cn(C)c(=O)c2c1c1ccccc1n2C,inactive: -9.87% and active: -62.2%
2,COC(=O)[C@@H]1C[C@@H](c2ccccc2)[C@H](C)C1(C)C,inactive: 20.3%
3,Cc1ccc([N+](=O)[O-])c(OCCN2CCNCC2)c1,inactive: -30.3%
4,CCSc1nnc(NC(=O)CSc2nnc(CNC(=O)c3ccc(OC)c(OC)c3)o2)s1,inactive: -2.71%
5,O=C(Nc1ccccc1)Nc1cccc(-c2cn3cccnc3n2)c1,inconclusive: -46.4%
6,CCC1CO/C(=C(\C(Cl)=C(Cl)Cl)[N+](=O)[O-])N1 (configuration not stated),inactive: -12.9%
7,COc1cc(CCC(C)=O)ccc1OC(=O)c1c(F)cccc1Cl,inactive: 11.8%
8,O=S(=O)(c1cc(Cl)ccc1Cl)n1ccnc1,inconclusive: -40.8%
9,COCCCNC(=S)NCCNc1nc2c(C)c(C)ccc2cc1C#N,inconclusive: -47.1%
10,COc1ccc(N2CCOCC2)c(NC(=O)c2cccs2)c1,inconclusive: -46.9%
11,CCOc1ccc(-n2c(C)c(C(C)=O)c(C(C)=O)c2C)cc1,inconclusive: -41.9%
12,CCOC(=O)C1(Cc2ccc(Cl)cc2)CCN(C(C)CCn2cccn2)CC1 (configuration not stated),inconclusive: -43.2%
13,CCOc1cc(Br)ccc1S(=O)(=O)N1CC(C)OC(C)C1 (configuration not stated),inconclusive: -51.2%
14,COc1ccc(C(=O)OC2=C(C(=O)c3ccccc3)N(C)S(=O)(=O)c3ccccc32)cc1OC,inactive: 12.8%
15,COc1ccc2nc(SCC(=O)NC3(C#N)CCCCC3)[nH]c2c1,inconclusive: -42.6%
16,CCn1cc(C(=O)NC2CCCc3c2cnn3-c2cccc(C)c2C)cn1 (configuration not stated),active: -99%
17,CCOC(=O)CSCC(=O)Nc1nnc(-c2cccc([N+](=O)[O-])c2)s1,inconclusive: -53.7%
18,CCn1c(=O)c(C(=O)CC#N)c(N)n(Cc2ccccc2)c1=O,inconclusive: 0%
19,Cc1ncc(CN2CCCC(C(=O)c3ccc(C(C)(C)C)cc3)C2)s1 (configuration not stated),inconclusive: -46.9%

# Source: PubChem BioAssay AID1259415 (National Center for Advancing Translational Sciences (NCATS), 2018)
